PubChem BioAssay AID686938 | Drosophila RNAi Screening Center, 2013

Purpose: 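Knock-downs reducing store-operated calcium influx in Drosophila cells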 (primary screen)
System: Drosophila S2R+ cells
Reagents: long dsRNA against Drosophila genes, about 0.25 µg dsRNA per well, roughly 10,000 cells
Duration: 5 days of knock-down before the calcium assay
Treatment: thapsigargin (SERCA pump blocker) to empty calcium stores; entry signal taken 4 min after adding it
Detection: 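Duplicate raw fluo-4 intensities per well from a plate reader, at rest and four minutes after thapsigargin emptied calcium stores; entry-to-rest ratio filled for only some wells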
Scale: calcium entry signal: higher = stronger calcium signal after store depletion; entry to resting ratio: higher = more calcium entry relative to resting level; resting calcium signal: higher = higher resting calcium signal
Active means: 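Hit if the duplicate-averaged plate z-score for entry over resting signal is under −3; wells with weak total dye signal (Fmax z < −2) or more than 5 off-targets removed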
Meaning of the calls: active = strongly reduced calcium entry; inactive = no strong reduction
In all, the deposit lists about 23,000 reagents; this is an unselected part of those that have a named target and a result. Over the whole deposit, 75 (0.33%) are marked active. 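Raw plate signals without normalisation; calls rest on plate z-scores that were not deposited; ratio present for only 364 wells.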 A number with no mark means an inactive call. Names joined by + are all predicted targets of the reagent. Not stated in the record: the dose of the treatment.

Gene | PubChem SID | calcium entry signal, replicate 1 (fluorescence units) | calcium entry signal, replicate 2 (fluorescence units) | entry to resting ratio | resting calcium signal, replicate 1 (fluorescence units) | resting calcium signal, replicate 2 (fluorescence units)
CG7367 | SID104182841 | 2.40e7 | 3.41e7 | – | 1.24e7 | 1.49e7
CG11403 | SID104198324 | 3.68e7 | 4.34e7 | – | 1.86e7 | 2.41e7
CG13930 | SID104188191 | 2.93e7 | 3.85e7 | – | 1.53e7 | 1.54e7
Cul3 | SID104183329 | 4.64e7 | – | – | 2.62e7 | –
Cul3 | SID104201245 | 3.77e7 | 3.20e7 | – | 2.13e7 | 1.54e7
AspRS-m | SID104182438 | 3.92e7 | 2.51e7 | – | 1.75e7 | 1.13e7
VGlut | SID104180525 | 3.75e7 | 4.93e7 | – | 1.65e7 | 2.46e7
VGlut | SID104201473 | 3.50e7 | 3.48e7 | – | 2.04e7 | 1.62e7
r-l | SID104196834 | 4.17e7 | 4.04e7 | – | 1.88e7 | 1.91e7
r-l | SID104202143 | 3.81e7 | 3.07e7 | – | 1.88e7 | 1.24e7
cola + swif | SID104186618 | 3.46e7 | 4.02e7 | – | 1.69e7 | 1.65e7
cola + swif | SID104201576 | 3.55e7 | 5.58e7 | – | 1.61e7 | 2.75e7
CG32448 | SID104202057 | 4.13e7 | 3.38e7 | – | 2.27e7 | 1.62e7
CG34199 | SID104185659 | 3.48e7 | 3.72e7 | – | 1.67e7 | 2.15e7
hmw | SID104196069 | 4.89e7 | 4.40e7 | – | 2.23e7 | 1.82e7
Lamp1 | SID104183519 | 3.92e7 | 3.64e7 | – | 1.94e7 | 1.58e7
CG13692 | SID104180153 | 3.85e7 | 3.61e7 | – | 1.84e7 | 1.63e7
CG31897 | SID104180812 | 3.48e7 | 5.54e7 | – | 1.89e7 | 2.48e7
Inx3 | SID104194649 | 4.21e7 | 4.87e7 | – | 1.78e7 | 2.09e7
RhoGEF4 | SID104190803 | 5.00e7 | 3.81e7 | – | 3.39e7 | 1.62e7
CG7483 | SID104196041 | 4.12e7 | 3.41e7 | – | 1.95e7 | 1.68e7
CG7483 | SID104201903 | 2.66e7 | 1.94e7 | – | 1.34e7 | 8.28e6
mRpL42 | SID104186027 | 4.55e7 | 4.15e7 | – | 2.03e7 | 1.77e7
CG8950 | SID104187092 | 4.10e7 | 3.67e7 | – | 1.86e7 | 1.73e7
Ced-12 | SID104182632 | 3.24e7 | 2.09e7 | – | 1.50e7 | 1.01e7
CG42747 | SID104190001 | 3.19e7 | 4.29e7 | – | 1.46e7 | 1.57e7
CG42747 | SID104190002 | 3.31e7 | 5.82e7 | – | 1.64e7 | 2.38e7

Targets listed so far whose target name starts with V or v:
Gene | PubChem SID | calcium entry signal, replicate 1 (fluorescence units) | calcium entry signal, replicate 2 (fluorescence units) | entry to resting ratio | resting calcium signal, replicate 1 (fluorescence units) | resting calcium signal, replicate 2 (fluorescence units)
VGlut | SID104180525 | 3.75e7 | 4.93e7 | – | 1.65e7 | 2.46e7
VGlut | SID104201473 | 3.50e7 | 3.48e7 | – | 2.04e7 | 1.62e7

Further entries follow:
Gene | PubChem SID | calcium entry signal, replicate 1 (fluorescence units) | calcium entry signal, replicate 2 (fluorescence units) | entry to resting ratio | resting calcium signal, replicate 1 (fluorescence units) | resting calcium signal, replicate 2 (fluorescence units)
CG31221 | SID104194127 | 3.98e7 | 4.58e7 | – | 5.53e7 | 2.20e7
CG31221 | SID104196009 | 4.31e7 | 4.96e7 | – | 5.41e7 | 2.49e7
acj6 | SID104200096 | 2.87e7 | 3.46e7 | – | 1.38e7 | 1.67e7
hook | SID104183337 | 5.43e7 | – | – | 2.72e7 | –
Amy-p | SID104186578 | 4.75e7 | 4.36e7 | – | 1.97e7 | 2.07e7
Abl | SID104189453 | 5.13e7 | 1.02e8 | – | 2.55e7 | 3.81e7
Abl | SID104202663 | 4.03e7 | 4.19e7 | – | 2.06e7 | 2.02e7
CG43996 + CG43997 | SID104199248 | 4.20e7 | 3.56e7 | – | 2.08e7 | 1.61e7
CG43996 + CG43997 | SID104199249 | 3.46e7 | 2.85e7 | – | 1.85e7 | 1.49e7
CG31802 | SID104182251 | 5.41e7 | 3.49e7 | – | 2.27e7 | 1.56e7
Bdp1 | SID104182984 | 2.99e7 | – | – | 1.48e7 | –
Met | SID104200076 | 3.83e7 | 4.96e7 | – | 2.00e7 | 2.50e7
CG34163 | SID104181011 | 3.41e7 | 5.17e7 | – | 1.53e7 | 2.31e7
CG14969 | SID104188220 | 4.23e7 | 3.05e7 | – | 2.77e7 | 1.49e7
Six4 | SID104191673 | 3.69e7 | 5.01e7 | – | 1.68e7 | 2.14e7
CG14401 | SID104182177 | 4.46e7 | 4.85e7 | – | 2.26e7 | 2.09e7
CG14401 | SID104201386 | 3.14e7 | 3.35e7 | – | 1.69e7 | 1.55e7
CG32985 | SID104182426 | 2.79e7 | 4.04e7 | – | 1.25e7 | 1.75e7
kni | SID104191683 | 3.11e7 | 5.71e7 | – | 1.49e7 | 2.33e7
kni | SID104202450 | 4.72e7 | 4.38e7 | – | 2.41e7 | 1.81e7
Aduk | SID104196243 | 2.08e7 | 2.38e7 | – | 1.14e7 | 1.22e7
CG14630 | SID104197958 | 5.36e7 | 6.15e7 | 2 | 2.64e7 | 2.58e7
CG14630 | SID104198445 | 4.83e7 | 4.62e7 | 2 | 2.39e7 | 2.12e7
CG12935 + Nop10 | SID104186817 | 4.20e7 | 4.14e7 | – | 2.11e7 | 1.66e7
His3.3B | SID104197565 | 2.54e7 | 3.96e7 | – | 1.28e7 | 1.77e7
His3.3B | SID104198465 | 1.62e7 | 2.44e7 | – | 9.75e6 | 1.28e7
Mtpbeta | SID104184455 | 2.41e7 | – | – | 1.25e7 | –
CG17028 | SID104190031 | 4.37e7 | 5.29e7 | – | 2.05e7 | 2.24e7
ck | SID104183301 | 5.39e7 | – | – | 2.57e7 | –
CG42306 + Gint3 | SID104186726 | 3.75e7 | 3.58e7 | – | 1.86e7 | 1.75e7
CG1688 | SID104185726 | 3.25e7 | 3.32e7 | – | 1.52e7 | 1.60e7
CG1688 | SID104202564 | 4.98e7 | 3.21e7 | – | 2.49e7 | 1.45e7
